Chains of the proteins cited; added tags and fusions are not shown. Chains listed by the source or under a name are the forms on record and can include a tag or linker.
integrin alphaVbeta3 (Homo sapiens), one chain, as listed by the source, chain 1 of 2: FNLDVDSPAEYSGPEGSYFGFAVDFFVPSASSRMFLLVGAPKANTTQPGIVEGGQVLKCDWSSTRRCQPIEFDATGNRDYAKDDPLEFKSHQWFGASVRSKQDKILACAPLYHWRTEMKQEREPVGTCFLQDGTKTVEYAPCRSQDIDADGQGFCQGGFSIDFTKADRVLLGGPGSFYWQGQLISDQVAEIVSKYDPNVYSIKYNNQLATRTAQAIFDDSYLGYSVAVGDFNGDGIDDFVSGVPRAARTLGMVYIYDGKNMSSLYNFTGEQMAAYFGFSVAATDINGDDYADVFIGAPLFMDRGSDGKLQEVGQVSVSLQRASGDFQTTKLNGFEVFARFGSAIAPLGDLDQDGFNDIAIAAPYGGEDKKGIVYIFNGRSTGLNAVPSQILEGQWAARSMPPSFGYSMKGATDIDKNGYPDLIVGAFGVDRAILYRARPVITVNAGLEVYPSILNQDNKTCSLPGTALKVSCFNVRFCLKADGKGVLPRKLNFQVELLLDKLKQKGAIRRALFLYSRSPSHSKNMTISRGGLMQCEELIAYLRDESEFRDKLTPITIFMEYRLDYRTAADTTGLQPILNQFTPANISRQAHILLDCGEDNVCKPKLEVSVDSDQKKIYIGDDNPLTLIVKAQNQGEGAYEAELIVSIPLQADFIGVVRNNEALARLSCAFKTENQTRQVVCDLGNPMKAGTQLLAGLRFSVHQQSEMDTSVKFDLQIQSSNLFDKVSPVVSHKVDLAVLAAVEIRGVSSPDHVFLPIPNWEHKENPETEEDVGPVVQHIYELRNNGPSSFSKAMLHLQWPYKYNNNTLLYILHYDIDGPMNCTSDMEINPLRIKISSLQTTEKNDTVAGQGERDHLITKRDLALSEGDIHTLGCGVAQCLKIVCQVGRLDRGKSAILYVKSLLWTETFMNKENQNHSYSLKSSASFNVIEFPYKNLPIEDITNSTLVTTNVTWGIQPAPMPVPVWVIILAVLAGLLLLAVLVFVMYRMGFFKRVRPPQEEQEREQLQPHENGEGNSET
integrin alphaVbeta3 (Homo sapiens), one chain, as listed by the source, chain 2 of 2: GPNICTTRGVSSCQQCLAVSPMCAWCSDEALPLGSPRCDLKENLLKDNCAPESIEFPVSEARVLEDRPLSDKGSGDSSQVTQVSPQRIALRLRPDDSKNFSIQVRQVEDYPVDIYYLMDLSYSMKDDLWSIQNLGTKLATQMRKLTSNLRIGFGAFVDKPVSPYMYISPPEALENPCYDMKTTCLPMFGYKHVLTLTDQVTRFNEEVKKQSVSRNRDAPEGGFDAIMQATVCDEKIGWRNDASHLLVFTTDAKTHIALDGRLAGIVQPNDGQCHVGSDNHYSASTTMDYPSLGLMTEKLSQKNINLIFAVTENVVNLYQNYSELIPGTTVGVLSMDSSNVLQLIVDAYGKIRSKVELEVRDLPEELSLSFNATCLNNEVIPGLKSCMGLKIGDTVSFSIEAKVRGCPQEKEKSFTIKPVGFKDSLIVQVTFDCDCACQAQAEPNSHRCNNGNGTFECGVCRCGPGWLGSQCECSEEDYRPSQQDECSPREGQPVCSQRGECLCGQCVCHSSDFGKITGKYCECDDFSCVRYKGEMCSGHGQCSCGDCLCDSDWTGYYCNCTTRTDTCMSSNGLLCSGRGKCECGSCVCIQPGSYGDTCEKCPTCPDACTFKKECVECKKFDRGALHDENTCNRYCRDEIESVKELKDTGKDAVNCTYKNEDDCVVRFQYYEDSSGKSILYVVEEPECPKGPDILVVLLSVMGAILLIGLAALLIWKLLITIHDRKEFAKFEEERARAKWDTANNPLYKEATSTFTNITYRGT

According to US6331394:

System: integrin alphaVbeta3 (Homo sapiens)
Experiment: ELONA
Conditions: immobilized integrin, label: 5'-biotin, letters built from the parent sequence and the stated change
[1] = 2'-F on all C and U [2'-F on all C and U: 1,2,3,6,8,9,11,12,13,19,20,21,23,25,29,33,34,36,37,38], Mg/Ca/Mn buffer, 37 C, purified native protein
[2] = 2'-F on all C and U [2'-F on all C and U], Mg/Ca/Mn buffer, 37 C, purified native protein
[3] = 2'-F on all C and U [2'-F on all C and U: 1,2,3,6,8,9,11,12,19,20,21,23,25,29,33,34,36,37,38], Mg/Ca/Mn buffer, 37 C, purified native protein
[4] = 2'-F on all C and U [2'-F on all C and U: 1,2,3,4,6,8,9,11,18,19,20,22,24,28,32,33,35,36,37], Mg/Ca/Mn buffer, 37 C, purified native protein

How did the Kd (2'-F on all C and U [2'-F at all C and U: 1,3,4,6,7,9,10,12,15,17,19,21,22,23,24,28,31,33,34,35,37,39], Mg/Ca/Mn buffer, 37 C, purified native protein) turn out when “CGCCGUUAUCACGACGUGCGUUCUGGGCGGUACUCGCGCA [15.43]” was run?
Its Kd is 45 nM.

With “UUCAACAUUGUCCAAGGGCUUAUAUGAGCGGAUUACCC [15.14]” as the sequence, how does the Kd [1] read?
The Kd was 6 nM.

For “UUCAACGAUGUUGAGGGGCUUAUAUGAGCGCAUUAUACCC [7.77]”, which Kd [2] is on record?
Its Kd is 770 nM.

For “UUCAACGCUGUCAAAGGGCUUAUAUAAGCGGAUUACCC [17.1]”, which Kd [3] is on record?
Its Kd is 380 nM.

Which Kd (2'-F on all C and U [2'-F on all C and U: 1,2,3,6,8,9,11,12,13,19,20,21,23,25,29,31,33,34,36,38,39,40], Mg/Ca/Mn buffer, 37 C, purified native protein) does the source give for “UUCAACGCUGUCCAAGGGCUUAUAUGAGCGCAUUAUACCC [15.20]” here?
Its Kd is 20 nM.

How did the Kd [2] turn out when “UUCAACGCUGUCCAAGGGCUUAUAUGAGCGCGUUAUACCC [7.38]” was run?
The Kd was 49 nM.

For “UUCAACGCUGUCCUAGGGCUUAUAUGAGCGCAGGAUACCC [15.53]”, which Kd (2'-F on all C and U [2'-F on all C and U: 1,2,3,6,8,9,11,12,13,14,19,20,21,23,25,29,31,36,38,39,40], Mg/Ca/Mn buffer, 37 C, purified native protein) is on record?
The Kd was 70 nM.

“UUCAACGCUGUGAAGGGCUUAUAUGAGCGGAUUACCC [15.18]” was tested. Which Kd (2'-F on all C and U [2'-F on all C and U: 1,2,3,6,8,9,11,18,19,20,22,24,28,32,33,35,36,37], Mg/Ca/Mn buffer, pH 7.5, 37 C, purified native protein) did it give?
Its Kd is 2 nM.

How did the Kd [1] turn out when “UUCAACGCUGUUCAAGGGCUUAUAUGAGCGGAUUACCC [15.10]” was run?
The Kd was 20 nM.

“UUCAACGUUGUCAAAGGGCUUAUACGGGCGGAUUACCC [15.17]” was tested. Which Kd [3] did it give?
Its Kd is 4 nM.

With “UUCAACGUUGUCAAAGGGCUUAUAUGAGCGGAUUACCC [15.2]” as the sequence, how does the Kd [2] read?
Its Kd is 6 nM.

Which Kd [1] does the source give for “UUCAACGUUGUCUAAGGGCUUAUAUGAGCGGAUUACCC [17.8]” here?
Its Kd is 18 nM.

“UUCGACGCUGUGAAGGGCUUAUAUGAGCGGAUACACCC [17.5]” was tested. Which Kd (2'-F on all C and U [2'-F on all C and U: 1,2,3,6,8,9,11,18,19,20,22,24,28,32,34,36,37,38], Mg/Ca/Mn buffer, 37 C, purified native …) did it give?
Its Kd is 5 nM.

With “UUCGACGCUGUUCAAGGGCUUAUAUGAGCGCGUUAUACCC [7.54]” as the sequence, how does the Kd [2] read?
Its Kd is 230 nM.

With “UUCGACGCUGUUGAAGGGCUUAUACGAGCGGAUUACCC [15.8]” as the sequence, how does the Kd [2] read?
The Kd was 5 nM.

How did the Kd [2] turn out when “UUCUACGAUGUCAAAGGGCUUAUAUGAGCGGAUUACCC [15.7]” was run?
Its Kd is 5 nM.

For “UUCUACGCUGUGAAGGGCUUAUACGAGCGGAUUACCC [17.7]”, which Kd [4] is on record?
Its Kd is 6 nM.

Which Kd [4] does the source give for “UUCUACGCUGUGAAGGGCUUAUAUGAGCGAAUUACCC [17.11]” here?
Its Kd is 4 nM.

For “UUCUACGCUGUGAAGGGCUUAUAUGAGCGGAUUACCC [17.2]”, which Kd [4] is on record?
Its Kd is 2 nM.

“UUCUACGUUGUUUAAGGGCUUAUAUGAGCGCAUUAUACCC [7.3]” was tested. Which Kd (2'-F on all C and U [2'-F on all C and U], 37 C, listing 3' fixed region lacks 2 nt relative to Table 1, purified native protein) did it give?
Its Kd is 22 nM.

For at least one entry, the source does not settle the construct or the ends of the probe.
